Laboratory results: PubChem BioAssay AID1347076 (National Center for Advancing Translational Sciences (NCATS), 2019)
Hit rate of the full screen: of about 400,000 compounds, about 13,000 (3.2%) were called active. Inconclusive means that the source gave no clear call. Such entries were picked first, then a sample of the others. Calls come from the whole dose curve; as a rule, active = well fitted cell-killing curve with a large enough effect; inconclusive = small, poorly fitted or top-dose-only effect, or effect the other way; inactive = flat fitted curve, though single readings scatter. A potency beside an inconclusive call is a rough fit, not a confirmed value.

assay: qHTS assay for MDR1-selective chemotherapeutics: Primary screen using the drug-selected MDR subline cells KB-V1; settings: KB-V1 MDR cells viability, CellTiter-Glo, 72 h; activity change, negative = cytotoxicity: at 46.1 µM (top of the series); note: nearly all actives have a fitted effect of over 60% in size
Summary of the method: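 KB-V1 cells (P-gp-expressing MDR subline of KB-3-1) in phenol-red-free DMEM with 10% FBS were exposed to library compounds over a concentration series for 72 h at 37 degrees C. Viability read by CellTiter-Glo luminescence; concentration-effect curves fitted after normalization.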
% is set by controls: 0 for no effect and ±100 for the full control effect; potency is the fitted concentration of half-maximal effect.

SMILES | Potency | activity change, negative = cytotoxicity
CCOc1ccccc1CNC(=O)c1ccc(Sc2ccc(Cl)cc2)c(NC(C)=O)c1 | active: 18.4 µM | –
O=C(Cc1cccs1)N1CCN(c2ccc([N+](=O)[O-])cc2)CC1 | inconclusive: 13 µM [cytotoxic, partial curve] | –
O=C(OCC(=O)c1c[nH]c2ccccc12)c1ccc([N+](=O)[O-])s1 | inconclusive: 29.1 µM [rising, single point] | –
Cc1cc2c(c(CO)c1CCO)C(=O)[C@@H](C)[C@@H]2O | – | inactive: 24%
O=C(CSc1ncn[nH]1)Nc1ccc(Br)cc1Br | inconclusive: 11.6 µM [cytotoxic, partial curve] | –
COc1ccccc1NC(=S)N1CCC(NC(=O)NC23CC4CC(CC(C4)C2)C3)CC1 | inconclusive: 23.1 µM [cytotoxic, single point] | –
C=CCn1c(COc2ccccc2)nnc1SCC(=O)C(C)(C)C | inconclusive: 16.4 µM [cytotoxic, partial curve, poor fit] | –
Cc1cccc(NC(=O)N2CCc3c(sc4c3CCCC4)C2c2ccc(F)cc2)c1 (stereo not given) | inconclusive: 1.3 µM [cytotoxic, full curve] | –
Cc1ccc(S(=O)(=O)N2CCN(c3cc(-c4cccs4)nc4ccccc34)CC2)cc1 | – | inactive: 14.5%
C[C@@H]1CN([C@H](C)CO)C(=O)c2c(c3ccccc3n2C)-c2ccccc2CO[C@H]1CN(C)Cc1ccc(-c2ccccc2)cc1 | inconclusive: 8.2 µM [cytotoxic, partial curve] | –
CC1CCCN(Cc2c(O)ccc3c(=O)c(-c4nc5ccccc5s4)c(N)oc23)C1 (stereo not given) | inconclusive: 2.06 µM [cytotoxic, full curve, poor fit] | –
COc1ccc(-c2nc(C)c(CCNC(=O)Cc3ccc(F)cc3)s2)cc1OC | inconclusive: 14.6 µM [cytotoxic, partial curve] | –
CC(NC(=O)CSc1nc(=O)cc(N)n1-c1ccccc1)c1ccccc1 (stereo not given) | inconclusive: 29.1 µM [rising, single point] | –
Cc1cc(C(=O)N2CCN(C(c3ccccc3)c3ccccc3)CC2)no1 | inconclusive: 23.1 µM [cytotoxic, partial curve, poor fit] | –
O=C(/C=C/c1ccc2c(c1)OCO2)N1CCN(c2ccccc2F)CC1 | inconclusive: 18.4 µM [cytotoxic, single point] | –
CN(C)CCCN(C(=O)c1ccco1)c1nc2ccc(F)cc2s1 | inconclusive: 0.0065 µM [cytotoxic, full curve] | –
OCc1ccc(-c2nn(Cc3ccccc3)c3ccccc23)o1 | inconclusive: 29.1 µM [cytotoxic, single point] | –
CCOc1ccc(NC(=O)CN(C)CC(=O)Nc2ccc(F)c(F)c2F)cc1OCC | inconclusive: 13 µM [cytotoxic, partial curve] | –
Cn1c(=O)cc(OCCCC(=O)N2CCCCC2)c2ccccc21 | inconclusive: 10.3 µM [cytotoxic, partial curve] | –
O=C1c2ccccc2NC(c2ccc(F)cc2)N1Cc1ccccc1 (stereo not given) | – | inactive: -3.49%
CCCCNC(=O)Nc1ccccc1Br | inconclusive: 29.1 µM [cytotoxic, single point] | –
N#Cc1ccccc1S(=O)(=O)N1CCN(c2nc(-c3cccs3)nc3ccccc23)CC1 | – | inactive: -9.81%
COc1cc(CNc2ccccc2)c([N+](=O)[O-])cc1OC | inconclusive: 23.1 µM [cytotoxic, single point] | –
Cc1cc(=O)oc(C)c1C(=O)OCC(=O)c1ccc(Cl)cc1 | inconclusive: 20.6 µM [cytotoxic, partial curve, poor fit] | –

Pulled by compound from the entries so far:
SMILES | Potency | activity change, negative = cytotoxicity
O=C(OCC(=O)c1c[nH]c2ccccc12)c1ccc([N+](=O)[O-])s1 | inconclusive: 29.1 µM [rising, single point] | –
O=C(Cc1cccs1)N1CCN(c2ccc([N+](=O)[O-])cc2)CC1 | inconclusive: 13 µM [cytotoxic, partial curve] | –
Cc1cc(C(=O)N2CCN(C(c3ccccc3)c3ccccc3)CC2)no1 | inconclusive: 23.1 µM [cytotoxic, partial curve, poor fit] | –

Following part.

SMILES | Potency | activity change, negative = cytotoxicity
CCc1nnc(NC(=O)C2(C)COC(c3ccc(OC)cc3)OC2)s1 (stereo not given) | inconclusive: 14.6 µM [cytotoxic, partial curve, poor fit] | –
COc1cccc(NC(=O)CCNS(=O)(=O)c2ccc(Br)s2)c1 | inconclusive: 7.31 µM [cytotoxic, partial curve] | –
CN(CC(=O)N1CCN(c2ccccn2)CC1)S(=O)(=O)c1ccc(Br)cc1 | – | inactive: -23.4%
Cc1nn(-c2ccccc2)c(Cl)c1/C=C(\C#N)C(=O)NC(C)C | – | inactive: -41.1%
Cc1ccc(N2CC(C(=O)N/N=C/c3c(F)cccc3Cl)CC2=O)cc1 (stereo not given) | – | inactive: -26.2%
Cc1ccc(S(=O)(=O)N2CCN(Cc3cccc(F)c3)CC2)cc1 | inconclusive: 16.4 µM [cytotoxic, single point] | –
O=C(N/N=C/c1cc([N+](=O)[O-])ccc1O)c1cc(-c2ccccc2)nc2ccccc12 | – | inactive: -16.7%
COC(=O)c1ccc(COc2ccc(-c3nnn(CC(N)=O)n3)cc2)cc1 | – | inconclusive: 17%
CC1CN(c2oc(-c3cccs3)nc2C#N)CC(C)O1 (stereo not given) | inconclusive: 14.6 µM [cytotoxic, single point] | –
Nc1ccc(CNC(=O)OCC2c3ccccc3-c3ccccc32)cc1 | inconclusive: 18.4 µM [cytotoxic, single point] | –
CCCCCCCCN1C(=O)[C@H](CC(=O)NCc2cccc(C(F)(F)F)c2)C[C@@]2(C(=O)OC)CC(C)(C)CC=C12 | active: 23.1 µM | –
CC(=O)NC(=S)Nc1cc(C(F)(F)F)ccc1N1CCOCC1 | inconclusive: 29.1 µM [cytotoxic, single point] | –
O=C(OCC(=O)N1CCC(Cc2ccccc2)CC1)c1ccc(CO)cc1 | inconclusive: 29.1 µM [cytotoxic, partial curve, poor fit] | –
CCCCNC(=O)C1(C)CCCCN1C(=O)c1ccc(C)c(F)c1 (stereo not given) | – | inactive: 0.952%
COc1ccccc1-n1cc(CN2CCCC(CO)(Cc3cccc(Cl)c3)C2)cn1 (stereo not given) | inconclusive: 5.8 µM [cytotoxic, partial curve] | –
N#Cc1ccsc1NC(=O)CN1CCN(S(=O)(=O)c2ccc3ccccc3c2)CC1 | active: 6.51 µM | –
CCOc1cc(/C=N/NC(=O)CN(CCc2ccccc2)S(=O)(=O)c2ccc(NC(C)=O)cc2)ccc1O | inconclusive: 29.1 µM [rising, single point] | –
Cc1nc2ncnn2c(Nc2ccc3c(c2)OCO3)c1Cc1ccccc1 | active: 16.4 µM | –
CC(NCc1ccc(OCc2ccc(Cl)cc2)cc1)C(O)c1ccccc1 (stereo not given) | inconclusive: 20.6 µM [cytotoxic, single point] | –
O=C(Nc1ccc(OC(F)F)c(Cl)c1)c1cccc(OC(F)F)c1 | active: 18.4 µM | –
CCn1nnnc1SCC(=O)c1cc(Cl)ccc1OC | inconclusive: 7.31 µM [cytotoxic, partial curve, poor fit] | –
COc1ccc(-c2noc(CN(C)C(=O)c3ccc4c(c3)OCO4)n2)cc1OC | – | inactive: -22.6%
CC(=O)c1ccc(-c2ccc([C@H]3[C@@H]4C=CCC[C@@]4(C)C(=O)N3Cc3ccccc3)c(F)c2)cc1 | inconclusive: 29.1 µM [cytotoxic, single point] | –
O=c1c2ccccc2nnn1CSc1ccccc1 | – | inactive: 3.99%

SMILES | Potency | activity change, negative = cytotoxicity
Cc1nc2ccccc2n1CC(=O)NC1CCCCCC1 | active: 14.6 µM | –
CCOC(=O)CSc1nc(N)c(C#N)c(-c2ccc(OCC)cc2)c1C#N | – | inactive: 2.29%
CCc1cccc(CC)c1-n1c(SCC(=O)N2CCc3ccccc3C2)nnc1-c1cccnc1 | inconclusive: 29.1 µM [cytotoxic, single point] | –
Cc1ccc(N2C(=O)CSC23C(=O)N(CC(=O)NC2CCCCC2)c2ccccc23)cc1 (stereo not given) | active: 18.4 µM | –
O=C(c1ccco1)N1CCN(C(=O)c2cc3sccc3n2Cc2ccccc2)CC1 | active: 2.06 µM | –
CC1(C)CC(=O)C2=C(C1)NC(=O)CC2c1ccccc1F (stereo not given) | inconclusive: 16.4 µM [cytotoxic, partial curve, poor fit] | –
O=C(NNc1cc(N2CCOCC2)nc(N2CCOCC2)n1)c1ccc(Cl)cc1Cl | inconclusive: 7.31 µM [cytotoxic, partial curve] | –
COc1ccccc1OCC(=O)N1CCCC(Nc2ccc(F)c(F)c2)C1 (stereo not given) | inconclusive: 18.4 µM [cytotoxic, single point] | –
CCC1Nc2ncnc(N3CCN(c4ccccc4)CC3)c2N(Cc2ccc(Br)cc2)C1=O (stereo not given) | – | inactive: -12.8%
O=C(Nc1ccc(NC(=O)C2CC2)cc1)c1cccs1 | – | inactive: 0%
COc1ccc(NS(=O)(=O)c2ccc(C)c(C(=O)N3CCCCCCC3)c2)cc1 | inconclusive: 18.4 µM [cytotoxic, single point] | –
O=C(COC(=O)c1cc(S(=O)(=O)N2CCOCC2)ccc1O)NCc1ccc2c(c1)OCO2 | inconclusive: 32.6 µM [rising, single point] | –
CCOC(=O)c1c(NC(=O)c2cc(-c3ccc(Cl)s3)nc3ccccc23)sc(C(N)=O)c1C | – | inactive: -23.6%
CCOc1nc(-c2ccccc2)ccc1-c1noc(COC)n1 | active: 23.1 µM | –
CN(C)CCCN(C(=O)CCS(=O)(=O)c1ccccc1)c1nc2cc3c(cc2s1)OCO3 | inconclusive: 18.4 µM [cytotoxic, single point] | –
CCc1nc(SCC(=O)Nc2ccccc2OC)c2c(C)c(C)sc2n1 | active: 9.2 µM | –
O=C1CSc2nc3ccccc3n21 | – | inconclusive: 42.9%
CC(=O)OCC1CCCC2=C(C)C(=O)CCC21COC(C)=O (stereo not given) | – | inactive: 28.2%
CCOC(=O)N1CCN(C(=O)C[C@@H]2C[C@@]3(C(=O)OC)CC(C)(C)CC=C3N(Cc3ccc4c(c3)OCO4)C2=O)CC1 | inconclusive: 8.2 µM [cytotoxic, partial curve] | –
O=C(NC1=NCCS1)c1sc2cc(Cl)cc(Cl)c2c1Cl | inconclusive: 29.1 µM [cytotoxic, single point] | –
COc1ccc2c(c1)CCc1c(C(=O)Nc3cc(C)ccc3O)noc1-2 | – | inactive: 11.3%
Cc1ccc(NC(=O)Cc2nnc(SCC(=O)Nc3nncs3)n2C)c(C)c1 | inconclusive: 3.26 µM [rising, partial curve, poor fit] | –
